According to patent US20230242675A1:
No constants are given. Whether binding was seen depends on the method and setting. Some binding calls cover weakened binding; strength is not graded here.

B1: EM0005-mAb90 scFv (scFv)
scFv: QVQLKQSGAELVRPGSSVKMSCKTSGYTFTSHSINWVKQRPGQGLEWIGYMYIGNGYTEYNEKFKGKATLTSDTSSTTAYMQLSSLTSEDSAIYFCAKITPVVAPYVMDYWGQGTSVTVSSGGGGSGGGGSGGGGSDIVMTQTHKFMSTSVGDRVSITCKASQDVGTAVAWYQQKPGQSPKLLIYWASTRHTGVPDRFTGSGSGTDFTLTISNVQSEDLADYFCQQYSSYPYTFGGGTKLELK
B2: EM0005-mAb86 scFv (scFv)
scFv: QVQLQQSGAELVRPGSSVKMSCKTSGYTFTTYGINWVKQRPGQGLEWIGYIYIGNGYTEYNEKFKGKATLTSDPSSRTAYMQLSSLTSEDSAIYFCARDLMVIAPKTMDYWGQGTSVTVSSGGGGSGGGGSGGGGSDIQMNQSHKFMSTSVGDRVSITCKASQDVGTAVAWYQQKPGQSPKLLIYWASTRHTGVPDRFTGGGSGTDFTLTISNVQSEDLADYFCQQYSSYPYTFGGGTKLEMK
B3: EM0005-mAb87 scFv (scFv)
scFv: EVQLQQSGPELVKPGASVKISCKASGYSFTDYYINWVKQSPEKSLEWIGETIPNTGGTTYNQKFKAKATLTVDKSSSTAYMQLKSLTSEDSAVYYCARYQSGSPFAYWGQGTPVTVSSGGGGSGGGGSGGGGSDIVMTQSQKFMSTTVGDRVSITCKASQNVGTAVAWYQQKPGQSPKLLIYSASNRYTGVPDRFTGSGSGTDFTLTISNMQSEDLADYFCQQHYSTPYTFGGGTKLEIK
B4: EM0005-mAb86c (antibody, human IgG1, kappa, V domains shown)
VH: QVQLQQSGAELVRPGSSVKMSCKTSGYTFTTYGINWVKQRPGQGLEWIGYIYIGNGYTEYNEKFKGKATLTSDPSSRTAYMQLSSLTSEDSAIYFCARDLMVIAPKTMDYWGQGTSVTVSS
VL: DIQMNQSHKFMSTSVGDRVSITCKASQDVGTAVAWYQQKPGQSPKLLIYWASTRHTGVPDRFTGGGSGTDFTLTISNVQSEDLADYFCQQYSSYPYTFGGGTKLEMKR
B5: EM0005-mAb87c (antibody, human IgG1, kappa, V domains shown)
VH: EVQLQQSGPELVKPGASVKISCKASGYSFTDYYINWVKQSPEKSLEWIGETIPNTGGTTYNQKFKAKATLTVDKSSSTAYMQLKSLTSEDSAVYYCARYQSGSPFAYWGQGTPVTVSS
VL: DIVMTQSQKFMSTTVGDRVSITCKASQNVGTAVAWYQQKPGQSPKLLIYSASNRYTGVPDRFTGSGSGTDFTLTISNMQSEDLADYFCQQHYSTPYTFGGGTKLEIKR
B6: EM0005-mAb90c (antibody, human IgG1, kappa, V domains shown)
VH: QVQLKQSGAELVRPGSSVKMSCKTSGYTFTSHSINWVKQRPGQGLEWIGYMYIGNGYTEYNEKFKGKATLTSDTSSTTAYMQLSSLTSEDSAIYFCAKITPVVAPYVMDYWGQGTSVTVSS
VL: DIVMTQTHKFMSTSVGDRVSITCKASQDVGTAVAWYQQKPGQSPKLLIYWASTRHTGVPDRFTGSGSGTDFTLTISNVQSEDLADYFCQQYSSYPYTFGGGTKLELKR

How the values were obtained:
[1] = target: cynomolgus (cyno) PD-L1/His fusion protein (cynomolgus) (UniProt G7PSE7); experiment: ELISA
[2] = target: human PD-L1/Fc Fusion Protein (human); experiment: ELISA
[3] = target: cynomolgus (cyno) PD-L1/His fusion protein (cynomolgus) (UniProt G7PSE7); experiment: ELISA / BLI

Binder	binding [1]	binding [2]	binding [3]
B1	binds	binds	–
B2	binds	–	–
B3	binds	–	–
B4	–	–	binds
B5	–	–	binds
B6	–	–	binds
